The target in the assay is SIRT1 (human) (UniProt Q96EB6). In words: co-IP; CBP and SIRT1 in HEK293T cells; bait and tags not stated.

Amino acid sequences for entries named in this document (tags omitted).
UniProt Q96EB6: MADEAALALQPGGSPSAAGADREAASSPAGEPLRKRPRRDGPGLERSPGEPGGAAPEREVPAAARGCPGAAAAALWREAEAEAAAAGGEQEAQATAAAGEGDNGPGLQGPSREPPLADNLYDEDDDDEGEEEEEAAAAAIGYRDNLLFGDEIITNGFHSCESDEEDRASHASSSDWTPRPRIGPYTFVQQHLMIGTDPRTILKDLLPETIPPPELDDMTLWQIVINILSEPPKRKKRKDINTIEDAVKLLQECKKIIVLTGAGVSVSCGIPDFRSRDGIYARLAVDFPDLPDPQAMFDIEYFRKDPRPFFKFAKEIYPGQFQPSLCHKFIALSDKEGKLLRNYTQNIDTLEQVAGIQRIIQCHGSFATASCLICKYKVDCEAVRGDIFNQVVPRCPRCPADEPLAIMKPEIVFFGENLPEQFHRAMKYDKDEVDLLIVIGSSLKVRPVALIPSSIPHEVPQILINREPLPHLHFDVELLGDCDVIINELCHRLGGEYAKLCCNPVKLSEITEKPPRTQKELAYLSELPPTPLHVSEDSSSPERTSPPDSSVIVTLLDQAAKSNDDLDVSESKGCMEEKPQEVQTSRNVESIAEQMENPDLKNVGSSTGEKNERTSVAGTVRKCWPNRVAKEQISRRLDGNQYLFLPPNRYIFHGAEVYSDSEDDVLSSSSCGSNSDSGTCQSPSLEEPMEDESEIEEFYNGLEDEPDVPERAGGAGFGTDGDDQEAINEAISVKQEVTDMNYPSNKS
UniProt Q92793: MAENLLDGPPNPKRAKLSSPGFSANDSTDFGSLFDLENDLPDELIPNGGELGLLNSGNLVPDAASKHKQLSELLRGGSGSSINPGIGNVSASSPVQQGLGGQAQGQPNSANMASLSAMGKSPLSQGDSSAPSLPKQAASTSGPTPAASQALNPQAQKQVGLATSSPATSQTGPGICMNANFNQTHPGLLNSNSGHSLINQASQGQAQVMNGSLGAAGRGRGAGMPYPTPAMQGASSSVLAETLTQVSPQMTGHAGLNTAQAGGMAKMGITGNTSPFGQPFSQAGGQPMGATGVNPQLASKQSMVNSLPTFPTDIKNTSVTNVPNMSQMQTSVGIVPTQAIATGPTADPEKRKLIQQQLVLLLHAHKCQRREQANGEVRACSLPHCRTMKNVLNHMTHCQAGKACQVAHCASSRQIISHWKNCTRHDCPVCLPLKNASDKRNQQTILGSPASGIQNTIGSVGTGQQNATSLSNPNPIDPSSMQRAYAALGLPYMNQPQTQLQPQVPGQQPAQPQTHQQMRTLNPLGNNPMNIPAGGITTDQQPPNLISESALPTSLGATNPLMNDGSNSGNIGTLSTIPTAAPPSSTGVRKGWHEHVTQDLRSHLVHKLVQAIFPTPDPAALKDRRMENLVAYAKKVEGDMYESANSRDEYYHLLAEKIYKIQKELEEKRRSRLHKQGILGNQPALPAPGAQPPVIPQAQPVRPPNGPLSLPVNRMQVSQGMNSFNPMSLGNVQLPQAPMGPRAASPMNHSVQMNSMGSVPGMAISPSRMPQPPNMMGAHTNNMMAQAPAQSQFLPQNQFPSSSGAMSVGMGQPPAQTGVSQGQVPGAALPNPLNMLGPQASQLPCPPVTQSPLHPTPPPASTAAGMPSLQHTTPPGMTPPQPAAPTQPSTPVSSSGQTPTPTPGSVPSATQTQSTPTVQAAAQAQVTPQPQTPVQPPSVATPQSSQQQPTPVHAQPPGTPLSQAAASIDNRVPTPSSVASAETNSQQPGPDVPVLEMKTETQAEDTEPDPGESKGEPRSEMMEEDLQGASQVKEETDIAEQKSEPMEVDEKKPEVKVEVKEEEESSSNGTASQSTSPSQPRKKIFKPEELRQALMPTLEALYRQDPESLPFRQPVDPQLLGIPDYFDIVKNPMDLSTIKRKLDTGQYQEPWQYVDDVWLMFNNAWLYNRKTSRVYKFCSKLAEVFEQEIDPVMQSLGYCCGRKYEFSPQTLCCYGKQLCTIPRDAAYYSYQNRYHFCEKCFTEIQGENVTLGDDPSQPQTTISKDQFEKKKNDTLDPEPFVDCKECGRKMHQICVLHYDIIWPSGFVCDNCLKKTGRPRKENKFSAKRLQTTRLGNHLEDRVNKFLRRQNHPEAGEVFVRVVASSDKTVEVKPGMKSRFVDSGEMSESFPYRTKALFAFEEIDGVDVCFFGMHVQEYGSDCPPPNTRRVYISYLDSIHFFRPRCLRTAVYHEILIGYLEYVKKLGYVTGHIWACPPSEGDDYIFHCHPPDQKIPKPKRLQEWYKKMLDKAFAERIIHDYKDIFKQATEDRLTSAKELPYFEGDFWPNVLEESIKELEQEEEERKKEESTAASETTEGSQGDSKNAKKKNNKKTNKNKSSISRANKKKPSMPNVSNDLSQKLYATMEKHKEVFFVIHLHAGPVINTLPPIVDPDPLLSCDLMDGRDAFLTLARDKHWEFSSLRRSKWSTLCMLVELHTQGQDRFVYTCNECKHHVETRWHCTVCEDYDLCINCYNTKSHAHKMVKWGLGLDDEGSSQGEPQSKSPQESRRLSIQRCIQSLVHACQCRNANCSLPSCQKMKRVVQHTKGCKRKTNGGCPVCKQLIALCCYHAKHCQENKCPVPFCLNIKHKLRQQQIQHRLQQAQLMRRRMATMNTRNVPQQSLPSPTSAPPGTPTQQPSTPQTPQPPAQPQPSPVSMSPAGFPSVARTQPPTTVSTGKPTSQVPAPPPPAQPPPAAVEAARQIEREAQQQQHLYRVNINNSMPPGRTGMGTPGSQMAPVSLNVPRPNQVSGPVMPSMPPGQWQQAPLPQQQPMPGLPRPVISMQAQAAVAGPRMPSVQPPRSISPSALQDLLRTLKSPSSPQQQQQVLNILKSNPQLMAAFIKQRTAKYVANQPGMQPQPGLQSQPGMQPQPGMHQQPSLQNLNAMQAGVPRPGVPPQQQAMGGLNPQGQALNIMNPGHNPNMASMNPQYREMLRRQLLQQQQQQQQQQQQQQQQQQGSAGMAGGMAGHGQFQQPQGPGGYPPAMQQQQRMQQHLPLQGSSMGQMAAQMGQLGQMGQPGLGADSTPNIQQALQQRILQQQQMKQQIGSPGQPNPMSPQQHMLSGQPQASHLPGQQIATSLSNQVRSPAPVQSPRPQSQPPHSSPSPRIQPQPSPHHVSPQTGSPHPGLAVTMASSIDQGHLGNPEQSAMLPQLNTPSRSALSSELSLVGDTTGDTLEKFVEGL

No constants are given. Whether binding was seen depends on the method and setting. In cells and extracts the contact can be indirect. Some binding calls cover weakened binding; strength is not graded here.

As for “CREB binding protein (CBP) acetyltransferase (from UniProt Q92793 1-2442) (enzyme)”, the binding result is reported as “binds”.

Source of the values: PMC11109641.
